Reference: article PMC11077370
These are yes or no findings as the source states them, for the method shown. In cells and extracts the contact can be indirect. Some results given as binding are weak or reduced against the parent protein; the word gives no strength.

By UniProt entry, the sequences of proteins in these tests, tags left out. Residues count along the entry.
UniProt P02545, residues 1-646: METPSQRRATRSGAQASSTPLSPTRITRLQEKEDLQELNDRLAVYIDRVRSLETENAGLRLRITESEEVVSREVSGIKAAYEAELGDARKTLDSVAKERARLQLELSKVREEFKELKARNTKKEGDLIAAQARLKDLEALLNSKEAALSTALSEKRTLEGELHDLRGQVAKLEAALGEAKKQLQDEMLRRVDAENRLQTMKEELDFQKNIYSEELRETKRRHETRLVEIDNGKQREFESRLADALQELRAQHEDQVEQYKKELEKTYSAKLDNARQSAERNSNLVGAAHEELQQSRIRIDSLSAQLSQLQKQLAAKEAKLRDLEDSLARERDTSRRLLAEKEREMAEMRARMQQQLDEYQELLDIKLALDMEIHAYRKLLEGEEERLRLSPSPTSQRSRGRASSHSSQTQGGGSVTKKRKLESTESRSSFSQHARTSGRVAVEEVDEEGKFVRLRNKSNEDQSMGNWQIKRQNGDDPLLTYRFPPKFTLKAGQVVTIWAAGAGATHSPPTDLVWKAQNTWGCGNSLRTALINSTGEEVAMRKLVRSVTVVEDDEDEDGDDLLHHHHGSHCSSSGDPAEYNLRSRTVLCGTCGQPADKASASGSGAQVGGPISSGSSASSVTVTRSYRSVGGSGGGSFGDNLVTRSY
UniProt P31749: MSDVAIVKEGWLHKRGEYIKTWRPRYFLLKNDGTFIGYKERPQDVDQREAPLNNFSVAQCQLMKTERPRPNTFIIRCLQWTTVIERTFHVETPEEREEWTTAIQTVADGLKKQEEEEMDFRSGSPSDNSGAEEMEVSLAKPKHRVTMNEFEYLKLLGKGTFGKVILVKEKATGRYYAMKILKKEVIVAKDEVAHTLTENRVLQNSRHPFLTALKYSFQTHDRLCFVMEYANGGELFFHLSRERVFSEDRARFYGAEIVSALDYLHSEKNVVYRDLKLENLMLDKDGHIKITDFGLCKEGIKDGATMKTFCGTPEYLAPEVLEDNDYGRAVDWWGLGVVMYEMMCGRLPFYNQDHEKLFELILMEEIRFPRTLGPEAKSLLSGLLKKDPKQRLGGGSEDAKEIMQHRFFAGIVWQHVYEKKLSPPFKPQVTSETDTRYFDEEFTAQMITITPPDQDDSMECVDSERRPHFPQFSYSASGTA

Biological target: HA-lamin A/C (wild type) (UniProt P02545)
Test: co-IP; Flag-Akt1 and HA-lamin A/C co-transfected in HEK293T; NP40 lysate, anti-HA or anti-Flag magnetic beads, 4 °C overnight, Western blotting

Flag-Akt1 (from UniProt P31749 1-480) (enzyme)
binding: binds
